# Percent effect of library compounds

By UniProt entry, the sequences of proteins in these tests, tags left out. Residues count along the entry.
UniProt P9WPC5, whole entry: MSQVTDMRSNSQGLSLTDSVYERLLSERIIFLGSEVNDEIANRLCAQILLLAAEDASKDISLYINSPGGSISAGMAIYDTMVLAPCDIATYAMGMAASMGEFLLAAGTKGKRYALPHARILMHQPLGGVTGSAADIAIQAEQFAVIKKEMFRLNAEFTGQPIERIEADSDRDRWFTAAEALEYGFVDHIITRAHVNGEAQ
UniProt P9WPC3, whole entry partner: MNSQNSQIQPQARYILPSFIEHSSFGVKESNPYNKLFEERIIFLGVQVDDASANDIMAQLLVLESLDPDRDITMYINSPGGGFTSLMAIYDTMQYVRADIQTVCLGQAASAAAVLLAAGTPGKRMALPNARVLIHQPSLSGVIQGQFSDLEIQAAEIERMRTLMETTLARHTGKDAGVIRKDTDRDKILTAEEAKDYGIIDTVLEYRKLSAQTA
UniProt A4I591, 1-473: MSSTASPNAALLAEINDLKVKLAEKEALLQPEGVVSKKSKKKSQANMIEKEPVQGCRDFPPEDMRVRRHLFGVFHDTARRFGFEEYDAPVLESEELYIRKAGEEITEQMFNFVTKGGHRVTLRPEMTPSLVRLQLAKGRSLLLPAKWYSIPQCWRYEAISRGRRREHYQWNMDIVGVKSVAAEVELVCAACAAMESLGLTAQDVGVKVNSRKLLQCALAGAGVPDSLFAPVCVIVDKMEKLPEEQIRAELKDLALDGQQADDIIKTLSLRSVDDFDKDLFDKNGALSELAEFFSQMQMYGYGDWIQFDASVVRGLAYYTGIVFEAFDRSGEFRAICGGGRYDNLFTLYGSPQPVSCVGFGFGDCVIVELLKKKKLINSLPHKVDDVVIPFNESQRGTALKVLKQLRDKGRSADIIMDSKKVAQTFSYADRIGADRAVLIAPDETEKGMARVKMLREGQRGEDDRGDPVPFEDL

The values are deposited in ChEMBL (CHEMBL3988442, “University of Dundee, Small-Polar-MMV Screening Library” (2021)).

A: 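ClpP1P2, Mycobacterium tuberculosis (UniProt P9WPC5 and UniProt P9WPC3). Protease assay of ClpP1P2, read by the AMC dye that it sets free. Concentration: 50 µM. Direction is inferred from only a few compounds that gave an IC50; most scored high, so higher reads as stronger inhibition. Most other retested compounds had strongly negative values. Of about 69,000 compounds tested this way, about 10 (0.015%) reached 50% or more in at least one test.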
B: 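Enzyme assay of histidyl-tRNA synthetase; the read-out is not stated. Target: Histidine-tRNA ligase, Leishmania infantum (UniProt A4I591). Concentration: 30 µM. Higher reads as stronger inhibition (inferred: compounds with an IC50 in retests scored well above the rest). The assay is labelled LdHisRS but filed under L. infantum. Of about 69,000 compounds tested this way, about 410 (0.6%) reached 50% or more in at least one test.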

Results are given as percent effect. The controls that fix the scale are not given in the record; negative values are as filed. Compounds were drawn at random from those tested, without regard to their results.

compound,A,B
CCOc1cc(CNC(=O)c2cnn(CC)c2C(F)(F)F)ccn1,-7.016,23.68
CCC[C@@H]1CN(C(=O)c2cc(-c3cccs3)n(C)n2)C[C@H]1NS(C)(=O)=O,-1.358,16.67
CC(=O)N1CCN(Cc2ccncc2)CC2(CC(=O)N(C)C2)C1 (stereo not drawn),-3.94,4.587
O=C(Nc1ccc(Cl)cn1)C1CCN(CCc2ccccn2)CC1,1.437,14.53
Cc1ccc(C#N)cc1NC(=O)NC1CCCN(c2ncccn2)C1 (stereo not drawn),-0.4689,9.375
CCn1nnc2c1C(COC)CN(Cc1ccsc1)C2 (stereo not drawn),-4.85,11.32
O=C1CCC2(CCCN(C(=O)c3ccco3)CC2)N1 (stereo not drawn),-7.811,23.3
CCOc1ccc(C(=O)n2cccn2)cc1,-4.217,8.602
Cc1ccc(C(=O)N2CC(=O)N(Cc3ccco3)CC(O)C2)cc1 (stereo not drawn),7.019,10.2
CNC(=O)c1ccc2c(c1)C1(CCN(CCOC)CC1)C(=O)N2,-12.87,13.89
CC(C)c1nc2cc(NC(=O)Cn3ccccc3=O)ccc2o1,-6.474,12
CCSCCC(=O)Nc1ncn(CC(=O)NCc2ccccc2)n1,-15.85,32.04
Cc1cc(C(=O)N2C[C@@H]3[C@@H](CN(C)CCCn4cccn4)[C@@H]3C2)c(C)o1,6.985,12.77
OCc1cn(CC2CCN(C3CCSC3)CC2)nn1 (stereo not drawn),-19.18,11.48
Cc1ccc(C2CCCN(S(C)(=O)=O)C2)nc1 (stereo not drawn),-14.08,7.194
CNc1ccc(CC2CCCN(C(=O)c3cccc(C)n3)C2)nn1 (stereo not drawn),-1.273,13.04
Cc1nn(C)c2c(N3CCC(C)CC3)nc(C3CC3)nc12,11.41,27.96
CCc1nnc(CN2CCc3ccc(S(N)(=O)=O)cc32)o1,-11.95,3.109
Cc1ccc(S(=O)(=O)Nc2ccc(-n3cccc3C(=O)O)c(C)c2)cc1,4.38,6.25
CCO[C@@H]1CC[C@H]2[C@H]1OCCN2C(=O)C1CCOCC1,-0.235,19.23
Cc1cccc(CN2C(=O)CCC23CCN(Cc2nccn2C)CC3)n1,-4.088,18.06
c1cc(C2CCN(c3cncnc3)CC2)ccn1,-8.145,7.042
Cc1onc(N)c1S(=O)(=O)N1CCCCC1C (stereo not drawn),-2.66,-2.857
CS(=O)(=O)CCSCc1cccc2cccnc12,-3.039,7.042
CC(=O)Nc1cccc(CNC(=O)N(C)Cc2ccccc2)c1,-0.1454,6.349
CC(=O)N1CCCC2(CCN(Cc3ccc(Cl)c(C(F)(F)F)c3)C2)C1 (stereo not drawn),1.838,17.95
COc1ccc2c(c1)CCN2Cc1nc2c(cnn2C)c(=O)[nH]1,-12.21,18.18
Fc1ccc(CN2CCOC(Cn3cncn3)C2)c2ncccc12 (stereo not drawn),-17.94,3.226
CC(CNC(=O)NCCCc1cc(N)n(-c2ccccc2)n1)N(C)C (stereo not drawn),14.78,24.69
CC(C)NC(=O)c1nc2c(s1)CCCN2C(C)C,-10.17,21.05
CC(C)Cc1ncc2c(n1)CN(c1nccc(NC(C)C)n1)C2,-13.95,21.51
CCS(=O)(=O)N1CCOC2(CCCN(c3cnccn3)C2)C1 (stereo not drawn),-8.841,31.43
CCOc1ccc(CC(=O)N2CCCC2c2cc(C)on2)cc1 (stereo not drawn),-5.184,5.128
CN(Cc1noc(C2CC2)n1)C1CCN(Cc2ccncc2)C1 (stereo not drawn),22.75,-2.128
CCN1CCOCC2(CCCN(C(=O)c3conc3C)C2)C1 (stereo not drawn),1.896,15.6
CN(Cc1ccc(N2CCOCC2)cc1)Cc1noc(C(C)(C)C)n1,5.276,8.235
NC(=O)COc1cccc(Cn2cc(Br)cn2)c1,-11.51,1.036
CC(C)(C)c1coc([C@@H]2COCCN2Cc2c[nH]c3ccccc23)n1,-2.112,-45.95
COc1cc(-c2n[nH]c(CN)n2)cc(OC)c1OC,17.64,20.88
O=C(CCC1CCCC1)N1CCC(c2ncc3c(n2)CCNC3)CC1,-5.495,-2.778
O=C(Cn1cc(C(=O)O)ccc1=O)NCc1ccc(F)c(Cl)c1,15.03,11.65
O=C(NCC(O)c1cccc(O)c1)C1CCN(C2CCCCC2)CC1 (stereo not drawn),-1.958,11.76
CCCc1cc(C(=O)N(C)Cc2cccc3cnccc23)n(C)n1,4.373,16.13
c1ccc(CN2CCNCC(Cc3cnccn3)C2)cc1 (stereo not drawn),-13.61,8.511
CC(C)NC(=O)Nc1ccc(CS(C)(=O)=O)cc1,-7.832,-2.74
O=C1CCC2(CCCN(C(=O)Cc3cccnc3)C2)N1 (stereo not drawn),-6.695,23.3
CCOCCN1CCN(Cc2cccc(C(=O)N(C)C)c2)CC1C (stereo not drawn),-24.76,8.621
CNS(=O)(=O)Cc1ccc(CNC(=O)c2ccccn2)cc1,-4.109,12.17
Cc1cc(CNCCNS(C)(=O)=O)sc1Br,-6.847,-4.819
Cc1ccccc1N1CCN(C(=O)CSc2ccncc2)CC1=O,-6.116,13.33
COc1ccccc1N1CCC(CNS(=O)(=O)c2cccc(C#N)c2)C1 (stereo not drawn),-11.9,-55.36
CCn1cc(NC(=O)NCC(c2ccsc2)N(C)C)cn1 (stereo not drawn),-27.22,21.43
COCCC1CCCCN1Cc1nc(Cc2cccc(F)c2)no1 (stereo not drawn),-20.14,0
CCc1nc(C2CCCN(c3nccc(N4CCCC4)n3)C2)no1 (stereo not drawn),-2.705,2.778
CCN1CC(=O)NCC12CCN(C(=O)c1ccco1)C2 (stereo not drawn),1.521,21.36
CN(C)CCNC(=O)c1cc(-c2cnc(N(C)C)nc2)cn1CC1CC1,-35.26,10.96
COCCS(=O)(=O)NC(C)c1ccccc1Cl (stereo not drawn),-1.057,22.12
COc1ccc(CN2CCC3(CC2)CCN(CCN(C)C)C3=O)cc1,5.216,17.31
COCCc1noc(CN(C)C(=O)c2cccc(N3CCCC3=O)c2)n1,-0.4963,5.618
Cc1nc(NC(=O)CNC(=O)c2c(F)cccc2Cl)n[nH]1,0.07039,17.14
COc1cc2cc(C(=O)NCC(=O)O)n(C)c2c(OC)c1OC,19.71,0
COCC(C)NC(=O)CN1CCC2(CC1)OCCO2 (stereo not drawn),-3.587,12.82
COCC(=O)NCCc1nc2cc(-c3ccc(OC)cc3)ncn2n1,-13.89,6.993
Cc1ccccc1CNC(=O)CN1CCN(Cc2nccn2C)CC1,9.282,30.95
Cc1cccc(C(=O)N2CCc3c(COCC4CC4)cncc3C2)n1,-6.938,11.76
O=C(c1ccoc1)N1CCCC1C1CCN(Cc2ccccc2)CC1 (stereo not drawn),-22.18,14.4
CCC(C)(C)C(=O)N1CCN(C2=NCC(C)S2)CC1 (stereo not drawn),1.215,5.051
O=C(CCc1cscn1)N1CCCC(c2ccn[nH]2)C1 (stereo not drawn),5.062,-5.479
O=C(C1CCCO1)N1CCC(c2nc(-c3ccccc3)n[nH]2)CC1 (stereo not drawn),-12.12,9.091
O=c1oc(-c2cccs2)nn1CC1(O)CCCCC1,9.785,26.76
CCS(=O)(=O)N1Cc2nccn2CC(Cn2cccn2)C1 (stereo not drawn),-12.57,11.32
COC[C@]1(O)CCN(C2CCN(c3ccc(F)c(F)c3)CC2)CC1(C)C,-1.211,12.9
Cc1nc2c(c(N3CCN(Cc4ccco4)CC3)n1)CCNCC2,-6.928,20.55
COc1ccc(-c2cc(=O)n3c(n2)CCCCC3)cc1,4.609,13.04
O=C(CCc1nc2cccnc2[nH]1)Nc1ccc2c(c1)NC(=O)CO2,10.11,12.36
c1ccc(N2CCCC3(COCCN(c4nccs4)C3)C2)nc1 (stereo not drawn),-9.534,36.19
Fc1cccc(CN2CCC(c3cc4ncccc4cn3)CC2)c1F,-34.88,29.58
CC1c2ncc(Cn3cncn3)n2CCN1C(=O)[C@H]1CCCO1 (stereo partly drawn),-18.67,4.167
c1cnnc(N2CCCC(NCc3cccc4c3OCCO4)C2)c1 (stereo not drawn),-26.22,9.649
CCn1ccc(-c2nnc(SCC(=O)NCC(C)C)n2CC)n1,-12.97,8.046
Cc1nc2c(c(NC3CCN(Cc4cccnc4)CC3)n1)CCNCC2,-2.638,7.792
CCc1noc(CCCC(=O)N2CCCC(c3ccn[nH]3)C2)n1 (stereo not drawn),-5.129,6.349

For reference, 7 entries once more:

compound,A,B
OCc1cn(CC2CCN(C3CCSC3)CC2)nn1 (stereo not drawn),-19.18,11.48
COCC(=O)NCCc1nc2cc(-c3ccc(OC)cc3)ncn2n1,-13.89,6.993
CC(C)Cc1ncc2c(n1)CN(c1nccc(NC(C)C)n1)C2,-13.95,21.51
COC[C@]1(O)CCN(C2CCN(c3ccc(F)c(F)c3)CC2)CC1(C)C,-1.211,12.9
Cc1nn(C)c2c(N3CCC(C)CC3)nc(C3CC3)nc12,11.41,27.96
Fc1ccc(CN2CCOC(Cn3cncn3)C2)c2ncccc12 (stereo not drawn),-17.94,3.226
c1ccc(N2CCCC3(COCCN(c4nccs4)C3)C2)nc1 (stereo not drawn),-9.534,36.19